Source: patent publication US20200368208, “Protein Translation Inhibitors and Uses Thereof” (University of Baltimore, Maryland, published 2020)

System: Iron Responsive Protein (IRP)
Assay: EMSA
Conditions: IRE length (28 or 51 nt) used in this figure not stated; disrupted only at very high compound 1 (5.5 mM); label: 3' biotin

UCCUGCUUCAACAGUGCUUGGACGGAAC [IRE 28nt biotin]
binding result: binds

For at least one entry, the source does not settle the construct or the ends of the probe.
